Reference: PMC5104321
Results are given in words; binding and its absence hold for the method and conditions named. Binding seen in cells or lysates may run through a third protein. Some binding calls cover weakened binding; strength is not graded here. Blank lines part the entries; values can stand above or below the molecule they belong to.

The chains behind the UniProt entries cited, without tags or fusion partners.
UniProt P62745: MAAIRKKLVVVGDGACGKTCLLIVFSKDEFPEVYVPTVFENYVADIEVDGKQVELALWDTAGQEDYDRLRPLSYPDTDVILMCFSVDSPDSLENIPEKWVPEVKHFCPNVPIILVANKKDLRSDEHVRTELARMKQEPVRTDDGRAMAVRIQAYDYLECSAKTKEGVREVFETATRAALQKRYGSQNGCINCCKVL
UniProt P84095: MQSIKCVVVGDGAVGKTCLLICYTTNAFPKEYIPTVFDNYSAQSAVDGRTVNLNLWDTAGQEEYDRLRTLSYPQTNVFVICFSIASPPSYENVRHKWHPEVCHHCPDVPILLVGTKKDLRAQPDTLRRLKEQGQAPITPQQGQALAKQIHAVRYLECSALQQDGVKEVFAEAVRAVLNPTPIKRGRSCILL

Legend:
[1] = target: T1, RhoGDI3 (human (endogenous in hTERT-HPNE, BxPC3 and PANC-1)) (UniProt Q99819); test: co-IP; lysates of hTERT-HPNE, BxPC3 and PANC-1 immunoprecipitated with anti-RhoGDI3 on protein G, blotted with anti-RhoG; unrelated antibody as control; lysis buffer 50 mM Tris pH 6.8, NaCl 2M, Triton X-100 1%
T1 sequence: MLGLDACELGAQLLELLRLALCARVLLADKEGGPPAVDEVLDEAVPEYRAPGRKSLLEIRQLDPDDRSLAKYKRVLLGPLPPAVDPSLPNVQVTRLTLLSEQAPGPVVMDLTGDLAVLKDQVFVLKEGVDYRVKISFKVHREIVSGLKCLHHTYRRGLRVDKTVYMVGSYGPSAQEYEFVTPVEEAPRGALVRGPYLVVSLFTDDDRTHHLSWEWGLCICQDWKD

[2] = target: RhoB GTPase (human (endogenous in hTERT-HPNE, BxPC3 and PANC-1)) (UniProt P62745); test: co-IP; lysate of hTERT-HPNE immunoprecipitated with anti-RhoB on protein G, blotted with anti-RhoGDI3; unrelated antibody as control; lysis buffer 50 mM Tris pH 6.8, NaCl 2M, Triton X-100 1%

binding [1]: binds
Molecule: RhoG GTPase (from UniProt P84095 1-191)

binding [2]: binds
B1: RhoGDI3 (protein, UniProt Q99819 1-225)
chain: T1 sequence
